# This is one part of the list. The data scatter; read single values as rough.
# Protein sequences, listed by entry. Tags and fused reporters are not part of them. Lines headed by an entry give the natural chain unless they say otherwise; changes in a name come on top. Residues count along the entry.
# UniProt Q9UKN8: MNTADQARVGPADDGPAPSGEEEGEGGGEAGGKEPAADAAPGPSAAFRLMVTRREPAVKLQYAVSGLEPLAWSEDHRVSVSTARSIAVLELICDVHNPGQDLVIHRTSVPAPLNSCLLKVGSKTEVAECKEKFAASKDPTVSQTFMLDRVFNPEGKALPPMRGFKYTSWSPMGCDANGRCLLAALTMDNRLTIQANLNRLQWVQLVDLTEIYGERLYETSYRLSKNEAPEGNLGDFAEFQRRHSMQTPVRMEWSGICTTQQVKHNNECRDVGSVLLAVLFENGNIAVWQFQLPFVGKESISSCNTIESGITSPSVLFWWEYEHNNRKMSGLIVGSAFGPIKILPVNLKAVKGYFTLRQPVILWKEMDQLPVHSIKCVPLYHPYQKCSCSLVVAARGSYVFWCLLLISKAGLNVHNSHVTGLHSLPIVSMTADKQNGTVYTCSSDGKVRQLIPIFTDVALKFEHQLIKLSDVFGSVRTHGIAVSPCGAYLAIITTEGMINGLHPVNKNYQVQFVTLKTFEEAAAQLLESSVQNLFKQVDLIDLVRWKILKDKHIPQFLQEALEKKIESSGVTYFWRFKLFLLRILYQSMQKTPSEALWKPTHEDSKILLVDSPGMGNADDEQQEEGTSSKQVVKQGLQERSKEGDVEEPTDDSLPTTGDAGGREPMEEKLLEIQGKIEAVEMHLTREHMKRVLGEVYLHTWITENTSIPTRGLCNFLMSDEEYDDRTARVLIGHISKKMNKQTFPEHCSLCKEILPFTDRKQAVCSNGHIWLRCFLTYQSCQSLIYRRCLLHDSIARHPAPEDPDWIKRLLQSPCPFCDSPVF
# UniProt Q86XA9: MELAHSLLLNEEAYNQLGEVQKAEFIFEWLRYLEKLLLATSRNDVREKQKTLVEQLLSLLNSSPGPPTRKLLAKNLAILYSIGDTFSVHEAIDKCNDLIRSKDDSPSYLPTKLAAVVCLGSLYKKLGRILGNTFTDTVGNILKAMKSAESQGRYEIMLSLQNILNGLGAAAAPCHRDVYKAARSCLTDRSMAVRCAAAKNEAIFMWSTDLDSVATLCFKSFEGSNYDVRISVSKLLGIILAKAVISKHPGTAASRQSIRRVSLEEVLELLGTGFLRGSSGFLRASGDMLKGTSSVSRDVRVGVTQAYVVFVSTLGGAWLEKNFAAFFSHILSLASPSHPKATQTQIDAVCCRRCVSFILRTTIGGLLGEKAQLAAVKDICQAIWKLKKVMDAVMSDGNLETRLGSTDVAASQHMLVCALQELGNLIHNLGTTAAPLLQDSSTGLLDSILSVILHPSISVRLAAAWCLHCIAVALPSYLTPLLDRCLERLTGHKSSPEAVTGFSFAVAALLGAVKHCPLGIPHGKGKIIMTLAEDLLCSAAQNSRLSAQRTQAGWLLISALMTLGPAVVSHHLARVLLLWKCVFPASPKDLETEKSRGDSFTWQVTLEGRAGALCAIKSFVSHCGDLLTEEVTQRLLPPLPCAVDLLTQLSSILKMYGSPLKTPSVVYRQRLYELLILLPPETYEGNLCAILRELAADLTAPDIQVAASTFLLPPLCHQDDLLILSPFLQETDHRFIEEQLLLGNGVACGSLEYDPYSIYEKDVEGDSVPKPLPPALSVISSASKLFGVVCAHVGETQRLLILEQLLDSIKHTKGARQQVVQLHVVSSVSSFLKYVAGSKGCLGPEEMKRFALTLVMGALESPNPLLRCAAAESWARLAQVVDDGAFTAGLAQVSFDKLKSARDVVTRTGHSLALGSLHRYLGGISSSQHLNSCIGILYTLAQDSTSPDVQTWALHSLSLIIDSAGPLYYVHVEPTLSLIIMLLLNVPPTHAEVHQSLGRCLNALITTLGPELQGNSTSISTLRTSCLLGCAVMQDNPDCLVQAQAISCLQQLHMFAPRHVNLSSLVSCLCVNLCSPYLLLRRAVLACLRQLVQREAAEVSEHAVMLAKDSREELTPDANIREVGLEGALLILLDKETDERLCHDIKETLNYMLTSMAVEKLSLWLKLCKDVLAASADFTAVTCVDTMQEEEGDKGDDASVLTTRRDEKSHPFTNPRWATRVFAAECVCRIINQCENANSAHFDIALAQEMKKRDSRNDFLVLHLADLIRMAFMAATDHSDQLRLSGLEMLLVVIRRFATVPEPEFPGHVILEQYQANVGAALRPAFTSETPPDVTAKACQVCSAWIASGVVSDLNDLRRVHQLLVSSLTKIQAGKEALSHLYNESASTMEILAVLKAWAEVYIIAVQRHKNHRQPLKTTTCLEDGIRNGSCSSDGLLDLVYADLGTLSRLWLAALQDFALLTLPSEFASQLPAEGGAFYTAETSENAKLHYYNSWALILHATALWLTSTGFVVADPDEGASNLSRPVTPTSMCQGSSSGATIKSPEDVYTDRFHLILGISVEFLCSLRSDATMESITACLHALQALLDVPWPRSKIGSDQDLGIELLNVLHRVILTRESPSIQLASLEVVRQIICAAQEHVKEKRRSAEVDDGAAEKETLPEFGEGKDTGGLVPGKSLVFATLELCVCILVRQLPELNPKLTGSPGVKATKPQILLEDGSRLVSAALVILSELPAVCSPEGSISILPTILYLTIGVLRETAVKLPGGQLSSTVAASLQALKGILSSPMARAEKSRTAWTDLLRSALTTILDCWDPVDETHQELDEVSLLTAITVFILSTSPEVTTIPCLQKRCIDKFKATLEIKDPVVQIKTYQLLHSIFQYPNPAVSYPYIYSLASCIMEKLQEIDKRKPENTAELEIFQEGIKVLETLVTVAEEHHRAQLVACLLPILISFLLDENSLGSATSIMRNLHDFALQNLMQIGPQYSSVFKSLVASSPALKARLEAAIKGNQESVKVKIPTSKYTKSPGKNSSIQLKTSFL
# UniProt Q9Y2Q3: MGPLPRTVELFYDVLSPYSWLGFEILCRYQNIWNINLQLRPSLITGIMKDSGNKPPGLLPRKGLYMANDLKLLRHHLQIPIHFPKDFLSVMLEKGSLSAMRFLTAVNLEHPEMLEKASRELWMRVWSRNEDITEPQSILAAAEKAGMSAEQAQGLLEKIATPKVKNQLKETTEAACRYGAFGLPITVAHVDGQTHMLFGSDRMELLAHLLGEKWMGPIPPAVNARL
# UniProt Q01581: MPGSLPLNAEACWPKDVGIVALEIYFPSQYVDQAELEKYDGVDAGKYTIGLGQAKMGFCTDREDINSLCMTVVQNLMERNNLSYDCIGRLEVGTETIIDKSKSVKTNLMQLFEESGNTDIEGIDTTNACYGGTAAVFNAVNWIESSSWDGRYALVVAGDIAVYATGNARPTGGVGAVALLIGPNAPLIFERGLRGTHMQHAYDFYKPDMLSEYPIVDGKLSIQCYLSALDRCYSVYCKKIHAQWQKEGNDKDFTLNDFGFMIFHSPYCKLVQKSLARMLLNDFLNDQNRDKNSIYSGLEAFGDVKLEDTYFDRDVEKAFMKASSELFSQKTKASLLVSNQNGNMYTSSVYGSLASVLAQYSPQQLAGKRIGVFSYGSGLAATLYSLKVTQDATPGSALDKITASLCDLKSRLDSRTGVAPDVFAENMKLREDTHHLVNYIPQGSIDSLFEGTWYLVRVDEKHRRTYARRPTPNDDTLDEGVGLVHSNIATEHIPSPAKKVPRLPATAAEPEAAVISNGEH
# UniProt O94927: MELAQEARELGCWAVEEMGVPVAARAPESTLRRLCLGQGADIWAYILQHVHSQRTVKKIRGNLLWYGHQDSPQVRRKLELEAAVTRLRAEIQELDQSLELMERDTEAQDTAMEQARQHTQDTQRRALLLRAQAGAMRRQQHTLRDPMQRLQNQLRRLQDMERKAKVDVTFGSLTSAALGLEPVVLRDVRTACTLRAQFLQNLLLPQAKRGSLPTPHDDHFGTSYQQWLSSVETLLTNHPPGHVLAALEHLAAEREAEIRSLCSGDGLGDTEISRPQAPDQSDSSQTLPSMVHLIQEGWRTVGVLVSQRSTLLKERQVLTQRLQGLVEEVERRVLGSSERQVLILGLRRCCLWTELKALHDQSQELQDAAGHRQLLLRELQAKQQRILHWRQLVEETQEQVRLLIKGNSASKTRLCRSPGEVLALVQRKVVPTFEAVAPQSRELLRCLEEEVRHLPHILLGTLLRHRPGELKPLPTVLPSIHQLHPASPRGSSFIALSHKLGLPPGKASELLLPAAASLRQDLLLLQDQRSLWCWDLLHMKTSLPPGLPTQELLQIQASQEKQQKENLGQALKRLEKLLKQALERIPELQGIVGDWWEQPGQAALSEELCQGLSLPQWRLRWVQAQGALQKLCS
# UniProt Q1KMD3, 594-624: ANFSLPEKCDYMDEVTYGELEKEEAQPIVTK
# UniProt P78347: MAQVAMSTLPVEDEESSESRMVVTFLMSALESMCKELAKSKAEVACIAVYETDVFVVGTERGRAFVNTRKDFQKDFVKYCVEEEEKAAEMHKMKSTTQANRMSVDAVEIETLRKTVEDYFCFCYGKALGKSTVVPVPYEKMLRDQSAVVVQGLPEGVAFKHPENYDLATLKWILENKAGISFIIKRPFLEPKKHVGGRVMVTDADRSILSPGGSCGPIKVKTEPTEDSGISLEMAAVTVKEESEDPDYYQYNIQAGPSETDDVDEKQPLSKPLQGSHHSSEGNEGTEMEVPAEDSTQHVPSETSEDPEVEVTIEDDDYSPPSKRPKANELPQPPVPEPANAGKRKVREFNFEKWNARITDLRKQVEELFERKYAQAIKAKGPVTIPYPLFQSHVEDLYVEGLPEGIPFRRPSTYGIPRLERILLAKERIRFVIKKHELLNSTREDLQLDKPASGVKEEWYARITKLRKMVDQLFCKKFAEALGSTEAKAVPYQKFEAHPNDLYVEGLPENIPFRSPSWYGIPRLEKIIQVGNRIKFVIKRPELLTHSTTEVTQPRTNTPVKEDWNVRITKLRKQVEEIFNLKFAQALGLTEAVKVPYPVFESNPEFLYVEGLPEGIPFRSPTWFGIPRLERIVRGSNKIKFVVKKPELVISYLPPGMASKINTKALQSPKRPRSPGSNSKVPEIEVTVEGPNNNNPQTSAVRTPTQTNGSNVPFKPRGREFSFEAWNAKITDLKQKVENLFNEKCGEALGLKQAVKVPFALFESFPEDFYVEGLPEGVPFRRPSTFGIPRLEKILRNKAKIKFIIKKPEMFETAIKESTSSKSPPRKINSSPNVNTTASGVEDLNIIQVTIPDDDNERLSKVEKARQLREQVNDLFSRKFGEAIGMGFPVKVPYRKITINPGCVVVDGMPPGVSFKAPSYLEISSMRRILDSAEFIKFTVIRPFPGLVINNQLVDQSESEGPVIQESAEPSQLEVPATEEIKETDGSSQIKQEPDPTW
# UniProt P31943: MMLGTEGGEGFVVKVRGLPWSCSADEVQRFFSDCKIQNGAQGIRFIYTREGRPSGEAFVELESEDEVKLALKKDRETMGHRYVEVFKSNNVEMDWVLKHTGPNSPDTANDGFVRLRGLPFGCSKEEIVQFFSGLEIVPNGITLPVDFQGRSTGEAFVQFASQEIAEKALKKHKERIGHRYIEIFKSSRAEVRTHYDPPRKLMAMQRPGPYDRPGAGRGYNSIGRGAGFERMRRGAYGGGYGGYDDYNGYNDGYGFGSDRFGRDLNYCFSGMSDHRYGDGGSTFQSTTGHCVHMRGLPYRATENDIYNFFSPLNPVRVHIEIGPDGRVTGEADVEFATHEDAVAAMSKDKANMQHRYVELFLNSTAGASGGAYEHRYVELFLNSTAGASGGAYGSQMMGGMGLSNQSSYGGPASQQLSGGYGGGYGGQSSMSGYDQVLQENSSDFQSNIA
# UniProt Q9Y450, whole entry, looked up: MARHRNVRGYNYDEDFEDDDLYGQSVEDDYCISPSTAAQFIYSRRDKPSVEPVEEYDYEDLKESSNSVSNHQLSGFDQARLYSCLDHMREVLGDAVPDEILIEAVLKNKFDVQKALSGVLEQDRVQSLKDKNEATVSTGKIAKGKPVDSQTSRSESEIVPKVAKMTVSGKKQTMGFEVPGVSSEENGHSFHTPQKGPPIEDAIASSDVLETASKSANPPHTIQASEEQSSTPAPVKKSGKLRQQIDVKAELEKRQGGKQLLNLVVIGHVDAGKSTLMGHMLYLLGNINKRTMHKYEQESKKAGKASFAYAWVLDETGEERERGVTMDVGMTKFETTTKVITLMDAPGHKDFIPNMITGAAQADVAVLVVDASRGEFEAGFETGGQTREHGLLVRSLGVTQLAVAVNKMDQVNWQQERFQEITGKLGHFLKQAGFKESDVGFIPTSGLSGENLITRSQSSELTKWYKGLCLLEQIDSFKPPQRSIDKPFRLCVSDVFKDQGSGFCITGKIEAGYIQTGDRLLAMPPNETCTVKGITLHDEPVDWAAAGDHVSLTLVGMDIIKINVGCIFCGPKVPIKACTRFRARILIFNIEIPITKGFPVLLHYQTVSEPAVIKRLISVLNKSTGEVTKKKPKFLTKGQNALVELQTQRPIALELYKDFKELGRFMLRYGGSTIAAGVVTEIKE
# Compound: ClCC(=O)N[C@H]1CCCc2ccccc12
# Test: log2 mean competition ratio of IA-DTB cysteine labelling (DMSO/compound) (log2 ratio); higher = stronger cysteine engagement by compound
# Conditions: 50 µM; treatment time: 4 h; cell line lysate: HEK293T
# Description: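 IA-DTB competitive cysteine chemoproteomics in HEK293T RIPA lysate. Lysates were treated with compound 29 or 30 at 50 or 200 µM for 4 h, then IA-DTB (500 µM, 1 h), trypsin-digested, NeutrAvidin-enriched and analysed by diaPASEF. Competition ratio = intensity DMSO / intensity compound (n=4 treated, n=64 DMSO); binding: mean log2 CR ≥ 1 and p ≤ 0.05 plus QC filters. Target is the cysteine site.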
row,Target,log2 mean competition ratio
1,HEXB C360 (UniProt P07686),0.893
2,GTF3C4 C764 (UniProt Q9UKN8),0.00585
3,HMGCL C141 (UniProt P35914),-0.0631
4,HEATR5A C623 (UniProt Q86XA9),-0.0731
5,HOXB6 C123,-0.0268
6,HECTD1 C2275 (UniProt Q9ULT8),-0.401
7,GSTK1 C176 (UniProt Q9Y2Q3),0.0751
8,HMGCS1 C86 (UniProt Q01581),0.517
9,GTF3C1 C1471 (UniProt Q12789),0.303
10,H1-7 C53 (UniProt P35367),0.289
11,HAUS5 C446 (UniProt O94927),0.0868
12,HNRNPUL2 C602 (UniProt Q1KMD3),0.604
13,HELB C608 (UniProt Q8NG08),-0.211
14,GTF2I C80 (UniProt P78347),-0.304
15,HNRNPH1 C22 (UniProt P31943),0.354
16,HBS1L C491 (UniProt Q9Y450),0.121
17,HEATR5A C1635 (UniProt Q86XA9),-0.245
18,HDGF C12 (UniProt P51858),0.529
19,GTF3C4 C174 (UniProt Q9UKN8),0.827
20,GTF3C5 C432 (UniProt Q9Y5Q8),-0.112

# Same assay, conditions: 200 µM; treatment time: 4 h; cell line lysate: HEK293T
row,Target,log2 mean competition ratio
1,HEXB C360 (UniProt P07686),-0.115
2,GTF3C4 C764 (UniProt Q9UKN8),0.228
3,HMGCL C141 (UniProt P35914),-0.249
4,HEATR5A C623 (UniProt Q86XA9),-0.142
5,HOXB6 C123,0.0177
6,HECTD1 C2275 (UniProt Q9ULT8),0.0365
7,GSTK1 C176 (UniProt Q9Y2Q3),0.365
8,HMGCS1 C86 (UniProt Q01581),-0.239
9,GTF3C1 C1471 (UniProt Q12789),-0.00426
10,H1-7 C53 (UniProt P35367),0.0524
11,HAUS5 C446 (UniProt O94927),0.259
12,HNRNPUL2 C602 (UniProt Q1KMD3),-0.246
13,HELB C608 (UniProt Q8NG08),-0.12
14,GTF2I C80 (UniProt P78347),0.383
15,HNRNPH1 C22 (UniProt P31943),-0.136
16,HBS1L C491 (UniProt Q9Y450),-0.14
17,HEATR5A C1635 (UniProt Q86XA9),-0.142
18,HDGF C12 (UniProt P51858),0.12
19,GTF3C4 C174 (UniProt Q9UKN8),-0.0348
20,GTF3C5 C432 (UniProt Q9Y5Q8),0.329

# Reference: the supplement of paper PMC11732987, “Enantioselective OTUD7B fragment discovery through chemoproteomics screening and high-throughput optimisation” (Communications Chemistry, 2025)
